Test results published in the supplement of paper PMC10849652.
Some of the results follow.

Chains of the proteins cited; added tags and fusions are not shown. Lines headed by an entry give the natural chain unless they say otherwise; changes in a name come on top.
UniProt Q9Y6Y8: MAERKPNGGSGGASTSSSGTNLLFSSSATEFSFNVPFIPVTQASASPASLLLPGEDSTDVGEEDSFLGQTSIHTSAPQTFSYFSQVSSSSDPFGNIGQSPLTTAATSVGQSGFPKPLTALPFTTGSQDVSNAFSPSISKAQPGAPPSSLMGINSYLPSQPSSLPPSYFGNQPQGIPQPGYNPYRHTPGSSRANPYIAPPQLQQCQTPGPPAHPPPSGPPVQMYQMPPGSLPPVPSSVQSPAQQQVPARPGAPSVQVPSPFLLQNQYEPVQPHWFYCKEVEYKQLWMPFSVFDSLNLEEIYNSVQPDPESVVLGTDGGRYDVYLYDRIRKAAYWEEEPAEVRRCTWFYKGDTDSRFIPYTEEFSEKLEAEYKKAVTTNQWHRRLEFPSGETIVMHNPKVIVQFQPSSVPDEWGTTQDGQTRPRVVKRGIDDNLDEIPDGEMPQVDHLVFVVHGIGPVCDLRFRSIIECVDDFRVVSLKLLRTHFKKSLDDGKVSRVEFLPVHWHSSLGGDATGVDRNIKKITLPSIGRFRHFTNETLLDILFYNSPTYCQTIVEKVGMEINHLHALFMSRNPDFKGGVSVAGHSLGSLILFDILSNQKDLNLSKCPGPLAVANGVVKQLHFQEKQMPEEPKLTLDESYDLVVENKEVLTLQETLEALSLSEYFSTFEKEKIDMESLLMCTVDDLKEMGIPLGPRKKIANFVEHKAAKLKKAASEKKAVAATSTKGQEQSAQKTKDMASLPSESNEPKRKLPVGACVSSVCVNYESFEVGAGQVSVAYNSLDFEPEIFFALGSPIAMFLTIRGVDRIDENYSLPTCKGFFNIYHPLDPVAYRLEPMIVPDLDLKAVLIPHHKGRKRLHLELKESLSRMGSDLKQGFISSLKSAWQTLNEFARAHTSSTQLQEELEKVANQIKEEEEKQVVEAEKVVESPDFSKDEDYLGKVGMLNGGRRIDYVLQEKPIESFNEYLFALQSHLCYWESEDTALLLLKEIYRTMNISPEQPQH
UniProt Q6P3W7: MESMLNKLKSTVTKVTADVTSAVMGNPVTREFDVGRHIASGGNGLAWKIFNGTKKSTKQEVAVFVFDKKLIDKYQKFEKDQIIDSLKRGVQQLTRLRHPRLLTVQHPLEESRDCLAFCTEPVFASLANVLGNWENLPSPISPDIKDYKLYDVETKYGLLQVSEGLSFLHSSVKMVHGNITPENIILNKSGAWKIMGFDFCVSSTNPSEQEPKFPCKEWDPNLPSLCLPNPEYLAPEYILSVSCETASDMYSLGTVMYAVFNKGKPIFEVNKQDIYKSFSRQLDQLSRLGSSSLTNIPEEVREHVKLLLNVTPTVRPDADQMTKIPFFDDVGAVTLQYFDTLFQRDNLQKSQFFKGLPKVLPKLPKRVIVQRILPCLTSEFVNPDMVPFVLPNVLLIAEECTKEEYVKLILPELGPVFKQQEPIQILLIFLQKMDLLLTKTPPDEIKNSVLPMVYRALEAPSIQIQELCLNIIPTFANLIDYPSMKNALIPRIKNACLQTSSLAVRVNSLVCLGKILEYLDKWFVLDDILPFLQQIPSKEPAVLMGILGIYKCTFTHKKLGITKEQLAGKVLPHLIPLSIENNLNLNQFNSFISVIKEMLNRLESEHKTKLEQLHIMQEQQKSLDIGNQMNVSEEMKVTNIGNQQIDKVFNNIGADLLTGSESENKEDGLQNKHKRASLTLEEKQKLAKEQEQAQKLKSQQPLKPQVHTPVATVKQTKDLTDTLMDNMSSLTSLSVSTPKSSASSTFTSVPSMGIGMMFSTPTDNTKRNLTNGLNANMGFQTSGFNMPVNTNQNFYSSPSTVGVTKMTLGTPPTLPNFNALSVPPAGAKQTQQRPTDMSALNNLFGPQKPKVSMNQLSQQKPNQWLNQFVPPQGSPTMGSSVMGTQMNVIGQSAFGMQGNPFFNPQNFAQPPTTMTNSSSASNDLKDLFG
UniProt Q15404: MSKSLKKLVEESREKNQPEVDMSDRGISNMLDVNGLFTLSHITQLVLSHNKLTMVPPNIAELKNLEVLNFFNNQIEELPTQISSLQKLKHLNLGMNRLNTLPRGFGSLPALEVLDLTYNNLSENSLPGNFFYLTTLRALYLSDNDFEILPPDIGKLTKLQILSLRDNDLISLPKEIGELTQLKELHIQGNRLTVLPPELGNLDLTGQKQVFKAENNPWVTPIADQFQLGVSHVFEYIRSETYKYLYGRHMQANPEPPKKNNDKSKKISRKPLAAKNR
UniProt O94885: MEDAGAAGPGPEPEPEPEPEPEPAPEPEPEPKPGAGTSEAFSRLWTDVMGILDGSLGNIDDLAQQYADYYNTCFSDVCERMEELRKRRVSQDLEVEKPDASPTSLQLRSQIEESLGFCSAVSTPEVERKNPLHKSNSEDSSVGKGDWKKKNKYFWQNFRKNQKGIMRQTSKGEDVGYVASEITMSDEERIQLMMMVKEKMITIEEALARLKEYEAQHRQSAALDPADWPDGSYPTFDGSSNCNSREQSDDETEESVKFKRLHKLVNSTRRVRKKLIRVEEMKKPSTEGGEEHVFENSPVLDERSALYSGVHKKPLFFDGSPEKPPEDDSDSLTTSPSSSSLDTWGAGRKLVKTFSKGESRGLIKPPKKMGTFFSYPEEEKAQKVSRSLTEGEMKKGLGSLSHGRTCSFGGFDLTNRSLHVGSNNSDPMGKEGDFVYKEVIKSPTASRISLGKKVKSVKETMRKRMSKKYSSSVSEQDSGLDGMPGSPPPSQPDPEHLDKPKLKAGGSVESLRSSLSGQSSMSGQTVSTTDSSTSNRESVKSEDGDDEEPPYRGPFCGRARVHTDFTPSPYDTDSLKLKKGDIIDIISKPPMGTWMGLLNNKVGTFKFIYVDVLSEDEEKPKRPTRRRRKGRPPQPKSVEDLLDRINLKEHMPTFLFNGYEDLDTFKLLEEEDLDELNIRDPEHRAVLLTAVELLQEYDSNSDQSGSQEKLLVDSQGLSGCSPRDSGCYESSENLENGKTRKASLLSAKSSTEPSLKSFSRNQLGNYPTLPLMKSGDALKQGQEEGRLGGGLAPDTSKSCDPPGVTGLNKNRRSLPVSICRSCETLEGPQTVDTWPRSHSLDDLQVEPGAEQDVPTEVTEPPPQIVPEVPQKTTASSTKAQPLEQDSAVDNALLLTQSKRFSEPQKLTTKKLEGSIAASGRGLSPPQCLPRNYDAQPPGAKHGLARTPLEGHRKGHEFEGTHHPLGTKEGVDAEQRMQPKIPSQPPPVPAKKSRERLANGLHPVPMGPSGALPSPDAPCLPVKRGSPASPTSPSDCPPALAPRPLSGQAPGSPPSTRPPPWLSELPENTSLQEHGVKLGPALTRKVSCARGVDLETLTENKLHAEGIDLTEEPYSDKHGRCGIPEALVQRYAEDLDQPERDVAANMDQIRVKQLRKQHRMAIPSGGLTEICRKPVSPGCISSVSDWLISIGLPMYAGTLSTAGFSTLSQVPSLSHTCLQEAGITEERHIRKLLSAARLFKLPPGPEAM
UniProt Q9HB40: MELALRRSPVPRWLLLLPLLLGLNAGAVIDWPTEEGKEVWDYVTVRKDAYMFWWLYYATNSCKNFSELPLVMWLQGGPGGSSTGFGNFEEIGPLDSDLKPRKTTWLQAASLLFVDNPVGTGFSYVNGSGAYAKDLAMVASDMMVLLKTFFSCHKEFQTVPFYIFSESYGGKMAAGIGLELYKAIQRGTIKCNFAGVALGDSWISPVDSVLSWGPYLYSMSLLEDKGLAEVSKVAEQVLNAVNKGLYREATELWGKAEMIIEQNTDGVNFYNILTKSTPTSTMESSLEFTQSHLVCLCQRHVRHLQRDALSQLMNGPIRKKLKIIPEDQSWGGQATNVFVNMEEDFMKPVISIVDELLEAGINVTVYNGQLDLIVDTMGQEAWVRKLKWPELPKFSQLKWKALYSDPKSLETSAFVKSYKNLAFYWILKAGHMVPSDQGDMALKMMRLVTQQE
UniProt O15127: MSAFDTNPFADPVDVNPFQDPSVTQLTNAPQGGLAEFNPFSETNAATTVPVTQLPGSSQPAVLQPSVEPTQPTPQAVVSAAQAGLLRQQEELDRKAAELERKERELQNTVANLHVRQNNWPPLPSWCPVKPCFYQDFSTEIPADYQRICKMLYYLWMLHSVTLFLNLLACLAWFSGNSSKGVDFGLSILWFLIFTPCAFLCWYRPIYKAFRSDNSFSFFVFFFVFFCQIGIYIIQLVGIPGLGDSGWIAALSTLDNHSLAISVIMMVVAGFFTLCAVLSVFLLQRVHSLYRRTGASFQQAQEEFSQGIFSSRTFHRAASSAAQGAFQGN
UniProt Q7L4I2: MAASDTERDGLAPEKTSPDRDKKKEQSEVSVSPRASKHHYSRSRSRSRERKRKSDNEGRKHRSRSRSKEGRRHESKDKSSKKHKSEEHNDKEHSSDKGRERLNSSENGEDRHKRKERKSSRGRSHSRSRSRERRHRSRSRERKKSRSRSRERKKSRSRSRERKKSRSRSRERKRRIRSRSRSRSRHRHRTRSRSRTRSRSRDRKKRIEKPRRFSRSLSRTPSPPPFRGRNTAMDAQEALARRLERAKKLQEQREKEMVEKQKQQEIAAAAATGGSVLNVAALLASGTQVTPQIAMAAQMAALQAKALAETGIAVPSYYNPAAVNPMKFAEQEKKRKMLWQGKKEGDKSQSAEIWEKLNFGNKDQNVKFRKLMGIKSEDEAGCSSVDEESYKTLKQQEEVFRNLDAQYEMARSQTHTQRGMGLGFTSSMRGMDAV
UniProt O00767: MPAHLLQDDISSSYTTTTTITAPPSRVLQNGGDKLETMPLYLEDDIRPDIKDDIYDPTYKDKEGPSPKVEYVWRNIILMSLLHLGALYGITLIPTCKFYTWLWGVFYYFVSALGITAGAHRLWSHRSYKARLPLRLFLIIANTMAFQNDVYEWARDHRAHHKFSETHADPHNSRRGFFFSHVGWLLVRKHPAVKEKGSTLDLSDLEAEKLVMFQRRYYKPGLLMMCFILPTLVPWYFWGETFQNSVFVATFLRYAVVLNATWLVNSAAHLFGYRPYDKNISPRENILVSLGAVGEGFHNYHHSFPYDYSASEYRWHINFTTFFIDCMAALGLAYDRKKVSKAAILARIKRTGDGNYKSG
UniProt O43818: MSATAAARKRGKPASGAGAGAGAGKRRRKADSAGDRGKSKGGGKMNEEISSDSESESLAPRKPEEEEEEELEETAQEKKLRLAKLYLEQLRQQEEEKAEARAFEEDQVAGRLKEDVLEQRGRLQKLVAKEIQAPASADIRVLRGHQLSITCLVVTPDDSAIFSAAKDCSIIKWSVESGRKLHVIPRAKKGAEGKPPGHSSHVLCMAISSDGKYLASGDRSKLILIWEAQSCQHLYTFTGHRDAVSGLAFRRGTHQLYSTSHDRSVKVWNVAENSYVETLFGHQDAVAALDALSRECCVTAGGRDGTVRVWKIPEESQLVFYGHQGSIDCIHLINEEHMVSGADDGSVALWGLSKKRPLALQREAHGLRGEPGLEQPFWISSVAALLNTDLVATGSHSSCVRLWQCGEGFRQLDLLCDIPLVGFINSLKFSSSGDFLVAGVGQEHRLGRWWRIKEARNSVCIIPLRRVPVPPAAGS
UniProt O14521: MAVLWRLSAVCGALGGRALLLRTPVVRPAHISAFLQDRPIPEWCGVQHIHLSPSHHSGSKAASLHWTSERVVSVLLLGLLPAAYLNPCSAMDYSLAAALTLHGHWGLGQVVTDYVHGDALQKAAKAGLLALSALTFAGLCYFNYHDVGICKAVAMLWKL
UniProt Q9Y6B6: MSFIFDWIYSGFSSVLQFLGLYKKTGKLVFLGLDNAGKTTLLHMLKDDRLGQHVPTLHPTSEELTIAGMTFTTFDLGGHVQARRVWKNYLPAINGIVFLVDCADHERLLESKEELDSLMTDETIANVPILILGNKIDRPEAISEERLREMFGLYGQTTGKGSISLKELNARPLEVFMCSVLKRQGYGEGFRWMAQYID
UniProt Q9BY42: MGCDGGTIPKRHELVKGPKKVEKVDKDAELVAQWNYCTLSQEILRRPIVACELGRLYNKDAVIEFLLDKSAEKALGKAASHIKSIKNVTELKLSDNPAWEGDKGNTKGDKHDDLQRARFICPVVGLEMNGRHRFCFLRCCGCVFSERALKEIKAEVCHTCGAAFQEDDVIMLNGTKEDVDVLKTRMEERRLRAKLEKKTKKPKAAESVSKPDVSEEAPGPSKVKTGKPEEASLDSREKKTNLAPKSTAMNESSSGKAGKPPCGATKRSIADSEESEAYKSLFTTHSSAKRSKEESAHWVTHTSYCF
UniProt Q6NW29: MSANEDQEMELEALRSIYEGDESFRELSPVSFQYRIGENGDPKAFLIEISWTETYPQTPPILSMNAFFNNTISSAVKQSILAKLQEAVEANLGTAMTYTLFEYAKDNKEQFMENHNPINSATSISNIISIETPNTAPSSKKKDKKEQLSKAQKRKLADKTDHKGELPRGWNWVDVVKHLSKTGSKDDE
UniProt Q969E2: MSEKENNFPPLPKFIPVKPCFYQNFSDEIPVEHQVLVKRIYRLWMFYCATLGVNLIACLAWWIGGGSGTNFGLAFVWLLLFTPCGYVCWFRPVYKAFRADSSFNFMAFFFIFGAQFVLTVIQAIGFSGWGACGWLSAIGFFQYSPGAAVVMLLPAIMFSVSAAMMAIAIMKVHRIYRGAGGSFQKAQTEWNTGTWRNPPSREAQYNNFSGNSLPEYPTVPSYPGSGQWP

Experiments:
Experiment in all cases: log2 fold change, soluble protein after heating vs DMSO (PISA); higher = thermal stabilisation; K562 cells, 10 uM, 30 min; active = over 0.2 and 3.5 SD of the protein, either way, in both replicates (recomputed)
[1] = compound: C1=CC=C(C=C1)[C@H](COC2=CC3=C(C=C2)NC(=O)N3)NC(=O)C4=CC=CN(C4=O)CC5=CC(=C(C=C5)F)F
Outline: (§1)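 For each measurement, 10 μM compound was applied for 30 min to K562 cells at 2×10^6 cells/mL. Aliquots were heated for 3 min across 48°C-58°C, pooled, and extracted in PBS with 0.5% NP-40 at 4°C; the supernatant after 21,000xg for 90 min was soluble protein. This was quantified by TMTpro 16plex LC-MS/MS with channel sums equalised, and thermal stability was reported relative to control samples from duplicates, on a log2 fold-change scale.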

[2] = compound: CC1=C(SC2=C1C(=N[C@H](C3=NN=C(N32)C)CC(=O)N)C4=CC=C(C=C4)Cl)C
Outline: as §1

[3] = compound: CC1=C2C(=CC=C1)N=C(N(C2=O)C3=CC=CC=C3C)CN4C=NC5=C(N=CN=C54)N
Outline: as §1

[4] = compound: Cc1sc2c(c1C)C(c1ccc(Cl)cc1)=N[C@@H](CC(=O)OC(C)(C)C)c1nnc(C)n1-2
Outline: as §1

[5] = compound: c1ccc([C@@H]2C[C@H]2NC2CCNCC2)cc1
Outline: as §1

Measured: log2 fold change

S100A2 (UniProt P29034)
inactive: [1] -0.094 | [2] 0.253 | [3] 0.492 | [4] 0.032 | [5] -0.088

SCAP (UniProt Q12770)
inactive: [1] 0.041 | [2] 0.048 | [3] 0.05 | [4] 0.002 | [5] -0.031

SEC16A isoform 5 (UniProt O15027)
inactive: [1] 0.014 | [2] 0.012 | [3] 0.154 | [4] 0.011 | [5] -0.006

SEC23IP (UniProt Q9Y6Y8)
inactive: [1] -0.037 | [2] 0.001 | [3] 0.063 | [4] 0.031 | [5] -0.037

SCYL2 (UniProt Q6P3W7)
inactive: [1] -0.023 | [2] 0.041 | [3] 0.031 | [4] -0.023 | [5] -0.006

RSU1 (UniProt Q15404)
inactive: [1] 0.015 | [2] 0.03 | [3] 0.044 | [4] -0.026 | [5] 0.013

SART1 (UniProt O43290)
inactive: [1] 0.136 | [2] -0.352 | [3] -0.24 | [4] 0.139 | [5] 0

SC5D (UniProt O75845)
inactive: [1] 0.033 | [2] 0.004 | [3] -0.023 | [4] -0.017 | [5] 0.045

SAFB isoform 3 (UniProt Q15424)
inactive: [1] 0.101 | [2] 0.018 | [3] 0.033 | [4] 0.136 | [5] 0.168

SDF4 (UniProt Q9BRK5)
inactive: [1] 0.006 | [2] -0.003 | [3] -0.006 | [4] -0.016 | [5] 0.008

SASH1 (UniProt O94885)
inactive: [1] -0.044 | [2] 0.092 | [3] 0.037 | [4] -0.045 | [5] -0.161

RRP7A (UniProt Q9Y3A4)
inactive: [1] 0.037 | [2] -0.066 | [3] -0.124 | [4] 0.058 | [5] 0.042

SCPEP1 (UniProt Q9HB40)
inactive: [1] 0.006 | [2] -0.006 | [3] -0.001 | [4] 0.007 | [5] -0.007

RTN3 isoform 5 (UniProt O95197)
inactive: [1] 0.158 | [2] 0.248 | [3] 0.079 | [4] -0.002 | [5] -0.215

SCAMP2 (UniProt O15127)
inactive: [1] 0.061 | [2] 0.026 | [3] -0.041 | [4] -0.105 | [5] -0.048

SDE2 (UniProt Q6IQ49)
inactive: [1] -0.004 | [2] -0.065 | [3] 0.07 | [4] -0.033 | [5] 0.004

RRP15 (UniProt Q9Y3B9)
inactive: [1] 0.022 | [2] -0.052 | [3] -0.018 | [4] 0.011 | [5] 0.025

RSRC2 (UniProt Q7L4I2)
inactive: [1] 0.034 | [2] 0 | [3] -0.045 | [4] 0.022 | [5] 0.085

SCLY (UniProt Q96I15)
inactive: [1] 0.009 | [2] 0.045 | [3] 0.039 | [4] -0.009 | [5] 0.018

RSL1D1 (UniProt O76021)
inactive: [1] 0.18 | [2] -0.349 | [3] -0.241 | [4] 0.178 | [5] 0.031

RRS1 (UniProt Q15050)
inactive: [1] 0.168 | [2] -0.368 | [3] -0.187 | [4] 0.246 | [5] -0.006

SART3, A0A499FI31
inactive: [1] -0.008 | [2] 0.015 | [3] 0.056 | [4] -0.08 | [5] -0.006

SCD (UniProt O00767)
inactive: [1] 0.011 | [2] -0.019 | [3] 0.012 | [4] 0.054 | [5] 0.027

SCFD2 (UniProt Q8WU76)
inactive: [1] 0.045 | [2] -0.002 | [3] -0.028 | [4] 0.026 | [5] 0.056

RTF1 (UniProt Q92541)
inactive: [1] -0.014 | [2] 0.036 | [3] 0.057 | [4] -0.013 | [5] 0.02

RRP9 (UniProt O43818)
inactive: [1] 0.036 | [2] -0.136 | [3] 0.02 | [4] 0.015 | [5] 0.1

SCAF11 (UniProt Q99590)
inactive: [1] -0.104 | [2] -0.098 | [3] 0.021 | [4] 0.064 | [5] 0.016

RSRC1 (UniProt Q96IZ7)
inactive: [1] -0.002 | [2] -0.019 | [3] 0.079 | [4] -0.019 | [5] -0.03

SDHD (UniProt O14521)
inactive: [1] 0.035 | [2] 0.054 | [3] -0.02 | [4] -0.159 | [5] 0.002

SBNO1 (UniProt A3KN83)
inactive: [1] -0.046 | [2] 0.054 | [3] 0.055 | [4] -0.011 | [5] -0.017

SCYL1 (UniProt Q96KG9)
inactive: [1] -0.042 | [2] 0.04 | [3] 0.033 | [4] -0.02 | [5] -0.003

SAR1B (UniProt Q9Y6B6)
inactive: [1] -0.012 | [2] 0.038 | [3] 0.037 | [4] -0.037 | [5] -0.026

SCG3 (UniProt Q8WXD2)
inactive: [1] 0.131 | [2] 0.034 | [3] 0.09 | [4] 0 | [5] 0.051

SAE1 (UniProt Q9UBE0)
inactive: [1] -0.011 | [2] 0.069 | [3] 0.047 | [4] -0.007 | [5] 0

SEC24C (UniProt P53992)
inactive: [1] -0.069 | [2] 0.044 | [3] 0.108 | [4] -0.005 | [5] -0.023

RTF2 (UniProt Q9BY42)
inactive: [1] 0.054 | [2] -0.009 | [3] 0.068 | [4] -0.038 | [5] 0.045

SAR1A (UniProt Q9NR31)
inactive: [1] -0.045 | [2] -0.06 | [3] -0.075 | [4] -0.009 | [5] 0.064

RWDD4 (UniProt Q6NW29)
inactive: [1] -0.03 | [2] -0.007 | [3] 0.071 | [4] 0.067 | [5] -0.009

SEC24D isoform 2 (UniProt O94855)
inactive: [1] -0.026 | [2] 0.11 | [3] 0.099 | [4] -0.005 | [5] -0.008

S100A13 (UniProt Q99584)
inactive: [1] -0.008 | [2] 0.029 | [3] -0.005 | [4] -0.015 | [5] -0.004

SCAMP2 (UniProt H3BUB6)
inactive: [1] 0.03 | [2] -0.017 | [3] 0.308 | [4] 0.15 | [5] 0.135

SCAMP4 (UniProt Q969E2)
inactive: [1] 0.039 | [2] 0.004 | [3] 0.047 | [4] -0.043 | [5] 0.001
